These are yes or no findings as the source states them, for the method shown. In cells and extracts the contact can be indirect. A yes stands for co-enrichment or nearness to the bait. Other partners may have been found.
Target: FLAG-V5-tagged PUF60 (PUF60L) (human) (UniProt Q9UHX1)
Assay: affinity purification with mass spectrometry; F-V5-PUF60L precipitated from HeLa S3 nuclear extract on ANTI-FLAG M2 Affinity Gel, 1 h at 4°C, IP buffer (20 mM Hepes pH 8, 150 mM KCl, 1.5 mM MgCl2); washes with 250 mM KCl, 0.05% Triton X-100, one with 200 ng/ml RNase A; digested on the beads, or eluted with FLAG peptide and gel bands excised; only proteins found in both experiments and absent from control HeLa extract are listed

Protein sequences, listed by entry. Tags and fused reporters are not part of them. Lines headed by an entry give the natural chain unless they say otherwise; changes in a name come on top.
UniProt Q9UHX1: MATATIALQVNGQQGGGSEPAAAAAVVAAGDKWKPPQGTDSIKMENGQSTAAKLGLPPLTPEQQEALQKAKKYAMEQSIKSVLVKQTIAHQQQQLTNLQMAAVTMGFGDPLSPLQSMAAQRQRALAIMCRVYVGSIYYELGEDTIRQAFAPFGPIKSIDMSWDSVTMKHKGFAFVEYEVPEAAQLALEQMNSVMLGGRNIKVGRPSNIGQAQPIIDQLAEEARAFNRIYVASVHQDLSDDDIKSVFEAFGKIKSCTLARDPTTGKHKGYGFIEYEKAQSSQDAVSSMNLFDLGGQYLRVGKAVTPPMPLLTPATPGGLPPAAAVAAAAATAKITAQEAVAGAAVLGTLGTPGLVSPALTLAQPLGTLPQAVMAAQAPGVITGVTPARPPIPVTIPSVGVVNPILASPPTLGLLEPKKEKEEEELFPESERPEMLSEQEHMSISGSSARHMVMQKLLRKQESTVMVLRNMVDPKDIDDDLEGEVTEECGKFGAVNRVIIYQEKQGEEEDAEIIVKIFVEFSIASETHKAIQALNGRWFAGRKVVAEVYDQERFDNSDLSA
UniProt P35637: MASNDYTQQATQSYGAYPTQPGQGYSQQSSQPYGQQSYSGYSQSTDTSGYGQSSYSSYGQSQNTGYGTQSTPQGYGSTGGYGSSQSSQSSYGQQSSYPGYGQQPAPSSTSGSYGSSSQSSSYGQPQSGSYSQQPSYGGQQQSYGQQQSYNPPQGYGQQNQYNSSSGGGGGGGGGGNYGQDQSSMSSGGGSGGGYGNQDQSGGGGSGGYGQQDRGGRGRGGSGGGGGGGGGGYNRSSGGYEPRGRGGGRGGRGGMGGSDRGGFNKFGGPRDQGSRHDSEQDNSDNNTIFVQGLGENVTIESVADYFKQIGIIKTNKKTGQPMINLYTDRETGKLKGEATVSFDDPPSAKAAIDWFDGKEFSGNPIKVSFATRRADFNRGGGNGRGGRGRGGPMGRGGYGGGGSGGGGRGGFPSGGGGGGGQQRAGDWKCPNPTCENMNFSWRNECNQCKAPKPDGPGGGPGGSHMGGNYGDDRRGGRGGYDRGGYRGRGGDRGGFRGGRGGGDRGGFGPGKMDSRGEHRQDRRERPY
UniProt P10155: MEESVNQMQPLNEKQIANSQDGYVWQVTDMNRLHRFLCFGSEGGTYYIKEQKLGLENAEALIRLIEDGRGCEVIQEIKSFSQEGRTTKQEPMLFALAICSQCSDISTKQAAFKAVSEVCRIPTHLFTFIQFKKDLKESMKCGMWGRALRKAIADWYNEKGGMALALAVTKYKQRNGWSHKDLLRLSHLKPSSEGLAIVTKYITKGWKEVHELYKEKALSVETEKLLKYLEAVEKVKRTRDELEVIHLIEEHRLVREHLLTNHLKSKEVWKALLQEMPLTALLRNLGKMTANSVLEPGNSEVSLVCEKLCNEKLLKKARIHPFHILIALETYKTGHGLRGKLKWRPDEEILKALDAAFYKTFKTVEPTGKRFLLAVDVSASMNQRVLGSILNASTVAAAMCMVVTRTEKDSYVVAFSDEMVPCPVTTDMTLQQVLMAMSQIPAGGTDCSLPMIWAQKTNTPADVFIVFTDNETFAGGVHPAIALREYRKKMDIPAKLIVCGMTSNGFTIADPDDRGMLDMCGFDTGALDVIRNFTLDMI
UniProt Q07955: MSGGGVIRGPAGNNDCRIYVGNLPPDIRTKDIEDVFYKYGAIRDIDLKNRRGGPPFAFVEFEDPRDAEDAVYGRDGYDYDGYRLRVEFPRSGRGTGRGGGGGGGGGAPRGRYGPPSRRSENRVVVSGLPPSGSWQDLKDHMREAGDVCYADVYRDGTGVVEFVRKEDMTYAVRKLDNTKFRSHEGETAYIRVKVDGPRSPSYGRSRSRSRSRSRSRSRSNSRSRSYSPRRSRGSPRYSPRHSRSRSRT
UniProt Q15393: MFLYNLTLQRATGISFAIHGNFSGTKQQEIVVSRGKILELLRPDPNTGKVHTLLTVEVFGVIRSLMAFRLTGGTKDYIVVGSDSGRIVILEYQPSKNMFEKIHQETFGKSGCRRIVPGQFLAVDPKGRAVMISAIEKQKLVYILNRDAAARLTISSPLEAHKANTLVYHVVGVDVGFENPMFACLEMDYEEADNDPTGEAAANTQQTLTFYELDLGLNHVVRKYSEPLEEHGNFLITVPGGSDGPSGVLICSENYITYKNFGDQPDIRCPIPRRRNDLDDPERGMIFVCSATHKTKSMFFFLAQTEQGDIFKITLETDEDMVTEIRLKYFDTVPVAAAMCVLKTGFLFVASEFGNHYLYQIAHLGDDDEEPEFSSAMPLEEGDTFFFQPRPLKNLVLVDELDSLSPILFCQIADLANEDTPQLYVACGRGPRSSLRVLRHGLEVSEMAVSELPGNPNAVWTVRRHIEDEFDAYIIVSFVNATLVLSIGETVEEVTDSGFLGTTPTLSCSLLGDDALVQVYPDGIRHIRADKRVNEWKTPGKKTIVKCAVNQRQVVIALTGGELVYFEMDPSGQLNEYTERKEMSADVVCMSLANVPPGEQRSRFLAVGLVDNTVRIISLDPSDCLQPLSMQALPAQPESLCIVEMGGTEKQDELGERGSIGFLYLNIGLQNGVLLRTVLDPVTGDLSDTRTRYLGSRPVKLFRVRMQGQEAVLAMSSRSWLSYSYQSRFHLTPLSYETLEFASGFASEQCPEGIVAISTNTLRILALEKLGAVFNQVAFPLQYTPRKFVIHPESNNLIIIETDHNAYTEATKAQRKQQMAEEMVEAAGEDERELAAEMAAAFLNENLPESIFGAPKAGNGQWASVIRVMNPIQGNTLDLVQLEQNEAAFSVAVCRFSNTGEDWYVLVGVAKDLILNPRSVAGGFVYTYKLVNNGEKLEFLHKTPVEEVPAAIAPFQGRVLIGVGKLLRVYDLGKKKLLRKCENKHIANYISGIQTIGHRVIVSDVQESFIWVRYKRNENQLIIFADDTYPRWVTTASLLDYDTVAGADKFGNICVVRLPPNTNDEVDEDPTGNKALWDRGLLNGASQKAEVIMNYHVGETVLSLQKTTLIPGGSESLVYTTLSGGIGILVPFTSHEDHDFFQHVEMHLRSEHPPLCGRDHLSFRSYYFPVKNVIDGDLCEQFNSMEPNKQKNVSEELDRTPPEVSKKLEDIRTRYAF
UniProt Q13435: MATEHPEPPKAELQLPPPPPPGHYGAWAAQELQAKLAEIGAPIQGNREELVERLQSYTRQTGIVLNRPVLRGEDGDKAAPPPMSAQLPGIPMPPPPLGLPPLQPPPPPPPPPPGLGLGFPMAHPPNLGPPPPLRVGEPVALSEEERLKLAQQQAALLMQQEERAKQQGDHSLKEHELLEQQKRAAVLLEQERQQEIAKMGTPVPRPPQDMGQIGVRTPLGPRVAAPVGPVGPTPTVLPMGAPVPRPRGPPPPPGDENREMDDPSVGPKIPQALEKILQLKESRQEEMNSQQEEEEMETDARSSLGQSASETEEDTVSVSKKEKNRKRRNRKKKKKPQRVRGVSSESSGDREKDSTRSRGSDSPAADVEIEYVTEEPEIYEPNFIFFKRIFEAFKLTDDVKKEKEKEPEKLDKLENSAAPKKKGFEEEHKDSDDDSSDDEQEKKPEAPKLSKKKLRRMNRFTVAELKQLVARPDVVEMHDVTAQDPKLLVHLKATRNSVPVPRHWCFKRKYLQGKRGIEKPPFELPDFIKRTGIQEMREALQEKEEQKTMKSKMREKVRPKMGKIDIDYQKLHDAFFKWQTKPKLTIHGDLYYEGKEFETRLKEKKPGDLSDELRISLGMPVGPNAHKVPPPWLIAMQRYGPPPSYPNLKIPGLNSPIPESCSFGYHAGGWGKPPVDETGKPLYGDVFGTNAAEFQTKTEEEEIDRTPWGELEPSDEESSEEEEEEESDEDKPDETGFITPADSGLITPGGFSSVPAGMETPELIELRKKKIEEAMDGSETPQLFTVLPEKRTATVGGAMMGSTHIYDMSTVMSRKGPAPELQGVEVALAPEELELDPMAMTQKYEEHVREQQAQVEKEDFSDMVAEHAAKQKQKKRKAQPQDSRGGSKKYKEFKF
UniProt O95218: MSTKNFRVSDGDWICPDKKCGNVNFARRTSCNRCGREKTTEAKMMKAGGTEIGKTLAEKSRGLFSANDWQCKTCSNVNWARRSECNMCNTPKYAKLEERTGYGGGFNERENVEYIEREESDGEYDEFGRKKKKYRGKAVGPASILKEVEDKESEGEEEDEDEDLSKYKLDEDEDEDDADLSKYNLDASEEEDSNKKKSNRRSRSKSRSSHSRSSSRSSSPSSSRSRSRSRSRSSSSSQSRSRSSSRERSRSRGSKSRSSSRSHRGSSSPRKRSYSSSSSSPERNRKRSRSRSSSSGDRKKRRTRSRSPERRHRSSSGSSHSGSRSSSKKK
UniProt Q9Y580: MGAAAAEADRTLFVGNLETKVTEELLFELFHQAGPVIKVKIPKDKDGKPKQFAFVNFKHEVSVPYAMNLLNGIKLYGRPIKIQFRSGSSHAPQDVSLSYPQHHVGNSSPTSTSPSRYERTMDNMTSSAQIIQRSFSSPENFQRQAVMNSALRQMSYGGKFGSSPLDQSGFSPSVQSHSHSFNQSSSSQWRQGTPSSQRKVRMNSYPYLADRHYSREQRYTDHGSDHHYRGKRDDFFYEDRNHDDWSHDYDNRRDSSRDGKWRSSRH
UniProt O75533: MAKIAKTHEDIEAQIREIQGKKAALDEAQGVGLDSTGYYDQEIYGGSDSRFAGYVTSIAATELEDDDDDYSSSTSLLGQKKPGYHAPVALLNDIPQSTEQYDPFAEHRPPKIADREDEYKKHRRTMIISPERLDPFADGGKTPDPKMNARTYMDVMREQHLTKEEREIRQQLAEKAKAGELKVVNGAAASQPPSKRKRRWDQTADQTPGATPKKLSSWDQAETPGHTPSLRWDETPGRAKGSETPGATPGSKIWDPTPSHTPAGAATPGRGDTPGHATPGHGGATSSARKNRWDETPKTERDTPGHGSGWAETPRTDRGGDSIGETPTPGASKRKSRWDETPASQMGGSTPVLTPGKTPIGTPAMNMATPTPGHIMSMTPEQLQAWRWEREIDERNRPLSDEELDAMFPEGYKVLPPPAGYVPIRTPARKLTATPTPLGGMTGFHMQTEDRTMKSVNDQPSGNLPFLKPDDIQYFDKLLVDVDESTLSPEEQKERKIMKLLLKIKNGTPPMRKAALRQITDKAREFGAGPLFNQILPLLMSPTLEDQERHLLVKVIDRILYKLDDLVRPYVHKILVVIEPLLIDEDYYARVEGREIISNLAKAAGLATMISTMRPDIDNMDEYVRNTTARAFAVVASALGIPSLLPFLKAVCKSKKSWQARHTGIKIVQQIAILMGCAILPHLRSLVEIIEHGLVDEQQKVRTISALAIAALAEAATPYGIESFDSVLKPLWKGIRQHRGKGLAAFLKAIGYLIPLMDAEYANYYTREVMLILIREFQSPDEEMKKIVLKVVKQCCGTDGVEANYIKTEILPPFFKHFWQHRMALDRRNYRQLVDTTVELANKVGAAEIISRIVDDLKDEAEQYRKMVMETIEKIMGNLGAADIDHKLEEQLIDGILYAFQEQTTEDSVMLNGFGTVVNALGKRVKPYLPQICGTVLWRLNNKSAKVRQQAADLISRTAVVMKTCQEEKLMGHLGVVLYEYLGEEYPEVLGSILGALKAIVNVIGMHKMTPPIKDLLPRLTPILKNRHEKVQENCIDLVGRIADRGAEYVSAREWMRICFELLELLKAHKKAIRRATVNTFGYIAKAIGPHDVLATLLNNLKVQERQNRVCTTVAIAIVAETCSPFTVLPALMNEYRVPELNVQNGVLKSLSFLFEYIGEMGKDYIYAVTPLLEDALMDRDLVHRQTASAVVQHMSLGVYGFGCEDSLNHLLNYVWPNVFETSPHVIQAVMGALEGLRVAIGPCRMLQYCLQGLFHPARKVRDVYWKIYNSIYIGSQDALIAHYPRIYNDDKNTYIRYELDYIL
UniProt P09012: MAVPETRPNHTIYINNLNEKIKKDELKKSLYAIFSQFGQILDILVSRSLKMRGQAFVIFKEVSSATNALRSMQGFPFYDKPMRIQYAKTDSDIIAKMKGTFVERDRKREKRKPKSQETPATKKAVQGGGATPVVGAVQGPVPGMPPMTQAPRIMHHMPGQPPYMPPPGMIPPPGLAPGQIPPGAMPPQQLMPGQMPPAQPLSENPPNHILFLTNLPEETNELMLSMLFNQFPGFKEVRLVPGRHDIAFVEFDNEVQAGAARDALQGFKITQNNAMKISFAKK
UniProt P38919: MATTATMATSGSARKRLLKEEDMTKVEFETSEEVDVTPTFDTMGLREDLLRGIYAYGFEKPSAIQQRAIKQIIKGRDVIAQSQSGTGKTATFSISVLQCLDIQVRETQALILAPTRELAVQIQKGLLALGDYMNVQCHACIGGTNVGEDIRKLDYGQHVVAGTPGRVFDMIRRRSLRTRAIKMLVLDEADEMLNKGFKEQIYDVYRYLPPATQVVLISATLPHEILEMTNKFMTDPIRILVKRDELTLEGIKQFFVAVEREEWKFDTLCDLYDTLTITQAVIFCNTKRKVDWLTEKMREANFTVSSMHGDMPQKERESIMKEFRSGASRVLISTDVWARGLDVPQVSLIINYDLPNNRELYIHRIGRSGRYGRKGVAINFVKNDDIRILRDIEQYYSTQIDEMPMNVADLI

| Substance | binding |
| --- | --- |
| FUS (from UniProt P35637 1-526) | binds |
| Ro 60KDa (from UniProt P10155 1-538) | binds |
| SF2/ASF (from UniProt Q07955 1-248) | binds |
| SF3B130 (from UniProt Q15393 1-1217) | binds |
| SF3B145 (from UniProt Q13435 1-895) | binds |
| SRM300 (from UniProt Q9UQ35 1-2752) | binds |
| U1 70K (from UniProt P08621 1-437) | binds |
| ZN265 (from UniProt O95218 1-330) | binds |

Second part, the substance after the results:

| binding | Substance |
| --- | --- |
| binds | RBM7 (from UniProt Q9Y580 1-266) |
| binds | SF3b155 (from UniProt O75533 1-1304) |
| binds | U1A (from UniProt P09012 1-282) |
| binds | eIF4AIII/DDx48 (from UniProt P38919 1-411) |
